Results reported in publication PMC11066878.
No constants are given. Whether binding was seen depends on the method and setting. In cells and extracts the contact can be indirect. Some entries that bind do so weakly or less than the wild type.

The chains behind the UniProt entries cited, without tags or fusion partners. Where a name states a change or a piece, a line headed by the entry shows the natural chain unless it says otherwise. Residues count along the entry.
UniProt P25694: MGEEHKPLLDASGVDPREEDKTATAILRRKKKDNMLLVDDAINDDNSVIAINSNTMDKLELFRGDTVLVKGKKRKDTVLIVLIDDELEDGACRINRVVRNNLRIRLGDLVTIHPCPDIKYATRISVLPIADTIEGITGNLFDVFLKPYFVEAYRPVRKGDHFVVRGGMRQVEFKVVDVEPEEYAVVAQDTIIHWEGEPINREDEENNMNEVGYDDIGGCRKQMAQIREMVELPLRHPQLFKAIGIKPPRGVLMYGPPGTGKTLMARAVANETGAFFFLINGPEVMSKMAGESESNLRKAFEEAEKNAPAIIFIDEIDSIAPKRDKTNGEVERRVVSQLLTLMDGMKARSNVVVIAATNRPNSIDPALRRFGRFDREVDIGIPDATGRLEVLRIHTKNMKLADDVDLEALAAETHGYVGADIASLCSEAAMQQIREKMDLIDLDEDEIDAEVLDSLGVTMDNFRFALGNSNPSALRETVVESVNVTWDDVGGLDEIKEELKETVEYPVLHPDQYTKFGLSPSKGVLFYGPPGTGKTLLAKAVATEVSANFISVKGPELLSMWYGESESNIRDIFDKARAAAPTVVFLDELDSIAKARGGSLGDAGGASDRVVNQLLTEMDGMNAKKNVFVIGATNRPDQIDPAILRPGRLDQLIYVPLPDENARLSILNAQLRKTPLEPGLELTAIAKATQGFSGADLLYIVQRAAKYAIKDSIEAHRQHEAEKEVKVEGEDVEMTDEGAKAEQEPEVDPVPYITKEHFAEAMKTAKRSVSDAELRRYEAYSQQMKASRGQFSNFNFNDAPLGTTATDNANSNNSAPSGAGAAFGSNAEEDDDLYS
Cdc48^ΔHbYX: residues 1-832 of P25694

What was measured:
Cdc48^ΔHbYX (yeast) = Cdc48^ΔHbYX (yeast) (UniProt P25694); assay: co-IP; lysates of WT and Cdc48^ΔHbYX cells solubilised with 1% DMNG, α-Cdc48 antibody 2 h, Protein A magnetic beads, blots for cofactors
[1] = molecular target: Cdc48 ATPase (yeast (endogenous in strains isogenic to BY4741 or FY251)) (UniProt P25694); assay: as above

B1: Ufd2 (enzyme, UniProt P54860 1-961)
chain: MTAIEDILQITTDPSDTRGYSLLKSEEVPQGSTLGVDFIDTLLLYQLTENEKLDKPFEYLNDCFRRNQQQKRITKNKPNAESLHSTFQEIDRLVIGYGVVALQIENFCMNGAFINYITGIVSNVNSYTDFLSQIIQRAILEGTALDLLNAVFPTLLEYCNKHVSHFDLNESVIYNNVLTIFELFVTFKPIAEIFTKIDGFFADYSCKPQDFERKTILGPILSLSPIEAAVAIRNYGDNLLRSKQQTAMIHESLQAEHKVVIDRLFFIVDKLVRGSLNSRTDMISYFAHIANKNHLRRADHPPFKELSSNGFMSNITLLLVRFSQPFLDISYKKIDKIDANYFNNPSLFIDLSGETRLNSDFKEADAFYDKNRKTADSKPNFISDCFFLTLTYLHYGLGGTLSFEEKMGSEIKALKEEIEKVKKIAANHDVFARFITAQLSKMEKALKTTESLRFALQGFFAHRSLQLEVFDFICGASTFLIRVVDPEHEFPFKQIKLPLIPDQIGVENVDNADFLRAHAPVPFKYYPEFVVEGPVNYSLYISKYQTSPIFRNPRLGSFVEFTTMVLRCPELVSNPHLKGKLVQLLSVGAMPLTDNSPGFMMDIFEHDELVNKNLLYALLDFYVIVEKTGSSSQFYDKFNSRYSISIILEELYYKIPSYKNQLIWQSQNNADFFVRFVARMLNDLTFLLDEGLSNLAEVHNIQNELDNRARGAPPTREEEDKELQTRLASASRQAKSSCGLADKSMKLFEIYSKDIPAAFVTPEIVYRLASMLNYNLESLVGPKCGELKVKDPQSYSFNPKDLLKALTTVYINLSEQSEFISAVAKDERSFNRNLFVRAVDILGRKTGLASPEFIEKLLNFANKAEEQRKADEEEDLEYGDVPDEFLDPLMYTIMKDPVILPASKMNIDRSTIKAHLLSDSTDPFNRMPLKLEDVTPNEELRQKILCFKKQKKEEAKHKASE
- binding (Cdc48^ΔHbYX (yeast)): binds
- binding [1]: binds
